The experiment relates to L1210 leukemia ip in BDF1 mice, survival T/C. The experiment is described as follows: NCI In Vivo Anticancer Drug Screen. Data for tumor model L1210 Leukemia (intraperitoneal) in B6D2F1 (BDF1) mice. Particulars: T/C endpoint: mean survival time, higher T/C = longer survival.
The mark [1] stands for this setting: dose: 100.0 mg/kg/injection, schedule: Q04DX003 (ip), vehicle: saline with Tween-80.
Where [2] appears, read: dose: 200.0 mg/kg/injection, schedule: Q04DX003 (ip), vehicle: saline with Tween-80.
Setting [3] is: dose: 400.0 mg/kg/injection, schedule: Q04DX003 (ip), vehicle: saline with Tween-80.
[4] abbreviates: dose: 100.0 mg/kg/injection, schedule: Q01DX001 (ip), vehicle: saline.
[5] abbreviates: dose: 200.0 mg/kg/injection, schedule: Q01DX001 (ip), vehicle: saline.
The mark [6] stands for this setting: dose: 50.0 mg/kg/injection, schedule: Q01DX001 (ip), vehicle: carboxymethylcellulose (CMC).
Setting [7] is: dose: 100.0 mg/kg/injection, schedule: Q01DX001 (ip), vehicle: carboxymethylcellulose (CMC).
[8] abbreviates: dose: 200.0 mg/kg/injection, schedule: Q01DX001 (ip), vehicle: carboxymethylcellulose (CMC).
Where [9] appears, read: dose: 400.0 mg/kg/injection, schedule: Q01DX001 (ip), vehicle: carboxymethylcellulose (CMC).

The list is a part of this screen's results and no random one: it gathers some chemical classes. Other doses and runs of a compound may be missing. T/C gives the treated animals as a percentage of the vehicle group. Some doses have a count of surviving animals in place of a T/C: the source files T/C as zero there, which appears to mark a toxic dose or a test without result, not a measured value. Some survivor counts are full or nearly so, which does not show that the dose was tolerated: the source hardly ever lists a survival T/C far under the control, and the zero likely stands for such cases as well. Survivors were counted at the toxicity check, usually on the fifth day, unless a day is given; later deaths do not show. Schedules are NCI's codes, taken here to give the interval after Q, in days (D) or hours (H), and the number of doses after X. Some metal complexes and salts are drawn in pieces, as in the source, so charges may not balance. Where survival is the endpoint, this PubChem deposit counts one and a half times the control or more as active, and values a quarter to a half above the control carry no call in these data; other NCI protocols may use other cut-offs. Some schedule codes hold Z or #, which are not explained here. Some doses were run more than once; the values are given in rising order. Some entries show no survivor count and are marked so; the dose need not have been tolerated. Some T/C values are followed by the survivors on the day toxicity was checked, most often the fifth; without a count or a note in brackets, all were alive then.

Take `ClC1(Cl)SC(Cl)(Cl)C(Cl)(Cl)C1(Cl)Cl`: the T/C (dose: 50.0 mg/kg/injection, schedule: Q01DX009 (ip), vehicle: Klucel (hydroxypropylcellulose) (HPC)) is 101 % of control; the T/C (dose: 100.0 mg/kg/injection, schedule: Q01DX009 (ip), vehicle: Klucel (hydroxypropylcellulose) (HPC)) is 106 % of control; the T/C under setting [1] was 95 % of control; the T/C under setting [2] is 95 % of control. Further, the survivor count runs as follows: (dose: 200.0 mg/kg/injection, schedule: Q01DX009 (ip), vehicle: Klucel (hydroxypropylcellulose) (HPC)) 5 of 6; under setting [3], 3 of 6.
For `CNCCN(C)C(=N)C(=N)N(C)CCNC`, the T/C was 93 % of control (dose: 100.0 mg/kg/injection, schedule: Q04DX002 (ip), vehicle: saline with Tween-80); 90 % of control (dose: 200.0 mg/kg/injection, schedule: Q04DX002 (ip), vehicle: saline with Tween-80); 90 % of control [2 of 3 alive] (dose: 400.0 mg/kg/injection, schedule: Q04DX002 (ip), vehicle: saline with Tween-80).
Take `CNC(=S)NNC(=O)NP(=O)(NC(=O)NNC(=S)NC)NC(=O)NNC(=S)NC`: the T/C under setting [4] is 100 % of control. Moreover, the survivor count is, setting by setting: under setting [5], 2 of 4; (dose: 400.0 mg/kg/injection, schedule: Q01DX001 (ip), vehicle: saline) 1 of 4.
Regarding `CO[PH+](OC)c1ccccc1.[C-]#[O+].[C-]#[O+].[C-]#[O+].[C-]#[O+].[C-]#[O+].[W]`, the T/C reads like this: (dose: 50.0 mg/kg/injection, schedule: Q04DX002 (ip), vehicle: gum acacia) 94 % of control; (dose: 100.0 mg/kg/injection, schedule: Q04DX002 (ip), vehicle: gum acacia) 105 % of control; (dose: 200.0 mg/kg/injection, schedule: Q04DX002 (ip), vehicle: gum acacia) 91 % of control.
As to `ClCC1CS1` (stereo not given), the T/C (dose: 9.38 mg/kg/injection, schedule: Q01DX009 (ip), vehicle: saline) is 106 % of control; the T/C (dose: 18.75 mg/kg/injection, schedule: Q01DX009 (ip), vehicle: saline) is 101 % of control; the T/C (dose: 20.0 mg/kg/injection, schedule: Q01DX Z (ip), vehicle: methylcellulose (MC)) was 120 % of control [5 of 6 alive]; the T/C (dose: 30.0 mg/kg/injection, schedule: Q01DX Z (ip), vehicle: methylcellulose (MC)) was 98 and 117 % of control; the T/C (dose: 37.5 mg/kg/injection, schedule: Q01DX009 (ip), vehicle: saline sonified) is 128 % of control; the T/C (dose: 37.5 mg/kg/injection, schedule: Q01DX009 (ip), vehicle: saline) is 114 % of control. For the same compound, the T/C was 117 % of control (dose: 44.0 mg/kg/injection, schedule: Q01DX Z (ip), vehicle: methylcellulose (MC)); 127 % of control (dose: 45.0 mg/kg/injection, schedule: Q01DX Z (ip), vehicle: methylcellulose (MC)); 101 % of control under setting [6]; 122 % of control (dose: 66.0 mg/kg/injection, schedule: Q01DX Z (ip), vehicle: methylcellulose (MC)); 114 % of control [5 of 6 alive] (dose: 67.0 mg/kg/injection, schedule: Q01DX Z (ip), vehicle: methylcellulose (MC)); 141 % of control (dose: 75.0 mg/kg/injection, schedule: Q01DX009 (ip), vehicle: saline sonified). Moreover, the T/C is, setting by setting: under setting [7], 106 % of control; (dose: 100.0 mg/kg/injection, schedule: Q01DX Z (ip), vehicle: methylcellulose (MC)) 95 % of control [5 of 6 alive]; (dose: 150.0 mg/kg/injection, schedule: Q01DX009 (ip), vehicle: saline sonified) 137 % of control; (dose: 150.0 mg/kg/injection, schedule: Q01DX Z (ip), vehicle: methylcellulose (MC)) 92 % of control [5 of 6 alive]; under setting [8], 106 % of control. Also, the survivor count runs as follows: (dose: 300.0 mg/kg/injection, schedule: Q01DX009 (ip), vehicle: saline sonified) 2 of 6; under setting [9], 1 of 4.
Take `CC(C)(CO)N=Cc1ccc(N(CCCl)CCCl)cc1`: the T/C is 107 % of control under setting [7] and 104 % of control under setting [8]. Further, the survivor count under setting [9] is 2 of 4.
On to `CN(C)CCCl`, for which the T/C reads like this: under setting [4], 104 % of control [survivor count not shown]; under setting [5], 96 % of control [survivor count not shown].
With `O=P1(N(CCCl)CCCl)OCCCN1CCCl` (stereo not given), the T/C (dose: 12.5 mg/kg/injection, schedule: Q01DX001 (ip), vehicle: saline) was 106 % of control; the T/C (dose: 25.0 mg/kg/injection, schedule: Q01DX001 (ip), vehicle: saline) is 120 % of control; the T/C (dose: 50.0 mg/kg/injection, schedule: Q01DX001 (ip), vehicle: saline) is 125 % of control; the T/C under setting [4] is 194 % of control; the T/C under setting [5] was 212 % of control.
For `NC(=NCCN1CCN=C1N[N+](=O)[O-])N[N+](=O)[O-]`, the T/C is, setting by setting: (dose: 50.0 mg/kg/injection, schedule: Q04DX003 (ip), vehicle: saline with Tween-80) 109 % of control; under setting [1], 95 % of control; under setting [2], 98 % of control.
`CCOc1ccc2ccccc2c1OCC.O=C1c2cc([N+](=O)[O-])ccc2-c2c1cc([N+](=O)[O-])cc2[N+](=O)[O-]`: the T/C (dose: 6.25 mg/kg/injection, schedule: Q04DX002 (ip), vehicle: saline with Tween-80) is 98 % of control and the T/C (dose: 12.5 mg/kg/injection, schedule: Q04DX002 (ip), vehicle: saline with Tween-80) is 91 % of control. Besides, the survivor count (dose: 25.0 mg/kg/injection, schedule: Q04DX002 (ip), vehicle: saline with Tween-80) was 3 of 3.
On to `O=P(Cl)(Cl)Nc1ccccn1`, for which the T/C reads like this: (dose: 5.0 mg/kg/injection, schedule: Q01DX001 (ip), vehicle: carboxymethylcellulose (CMC)) 100 % of control; (dose: 10.0 mg/kg/injection, schedule: Q01DX001 (ip), vehicle: carboxymethylcellulose (CMC)) 98 % of control [3 of 4 alive]. Moreover, the survivor count by setting is: (dose: 20.0 mg/kg/injection, schedule: Q01DX001 (ip), vehicle: carboxymethylcellulose (CMC)) 1 of 4; (dose: 40.0 mg/kg/injection, schedule: Q01DX001 (ip), vehicle: carboxymethylcellulose (CMC)) 0 of 4; under setting [6], 0 of 4; (dose: 80.0 mg/kg/injection, schedule: Q01DX001 (ip), vehicle: carboxymethylcellulose (CMC)) 0 of 4; under setting [7], 1 of 4; under setting [8], 0 of 4. The survivor count under setting [9] was 0 of 4.
`CC#N.CC1[N-]CC[N-]CC[N-]CC[N-]C(C)C2CCCC1[N-]2.F[P-](F)(F)(F)(F)F.[Ni+2]` (stereo not given): the T/C is 86 % of control (dose: 20.0 mg/kg/injection, schedule: Q01DX001 (ip), vehicle: Klucel (hydroxypropylcellulose) (HPC)); 95 % of control (dose: 40.0 mg/kg/injection, schedule: Q01DX001 (ip), vehicle: Klucel (hydroxypropylcellulose) (HPC)); 104 % of control (dose: 100.0 mg/kg/injection, schedule: Q01DX001 (ip), vehicle: Klucel (hydroxypropylcellulose) (HPC)). Besides, the survivor count (dose: 200.0 mg/kg/injection, schedule: Q01DX001 (ip), vehicle: Klucel (hydroxypropylcellulose) (HPC)) was 0 of 3.
Regarding `C[n+]1ccc(N(CCCl)CCCl)cc1`, the T/C is 103 % of control (dose: 1.25 mg/kg/injection, schedule: Q01DX Z (ip), vehicle: saline); 101 % of control (dose: 2.5 mg/kg/injection, schedule: Q01DX Z (ip), vehicle: saline); 104 % of control (dose: 5.0 mg/kg/injection, schedule: Q01DX Z (ip), vehicle: saline); 103 % of control (dose: 10.0 mg/kg/injection, schedule: Q01DX Z (ip), vehicle: saline).
Regarding `CCCCC(CC)CO[P+](=O)OCC(CC)CCCC` (stereo not given), the T/C reads like this: under setting [1], 94 % of control; under setting [2], 87 % of control. For the same compound, the survivor count under setting [3] was 2 of 6.

(Values after PubChem BioAssay AID248 (DTP/NCI, 2004).)
